Holding throughout (experiment): affinity purification with mass spectrometry; GFP-Trap magnetic particles on lysates of NIH3T3 and HEK293T cells stably expressing GFP-tagged paralogs (NES-GFP as control); digitonin lysis buffer pH 7.5, 200 mM NaCl; washes with 1.5 M NaCl, 0.5% Triton X-100; eluates on Coomassie gel and by nanoLC-MS/MS
Experiment [1] addresses T1, PRPS1-GFP (UniProt Q9D7G0).
T1 sequence: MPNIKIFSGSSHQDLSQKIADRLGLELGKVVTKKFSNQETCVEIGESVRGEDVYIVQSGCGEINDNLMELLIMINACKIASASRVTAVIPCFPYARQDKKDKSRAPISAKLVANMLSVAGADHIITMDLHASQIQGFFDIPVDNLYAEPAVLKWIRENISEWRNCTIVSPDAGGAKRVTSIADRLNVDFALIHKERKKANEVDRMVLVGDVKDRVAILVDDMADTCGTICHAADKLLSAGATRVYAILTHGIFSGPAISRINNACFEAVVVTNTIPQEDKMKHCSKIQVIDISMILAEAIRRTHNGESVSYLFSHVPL

For experiment [2], the target named is T2, PRPSAP1-GFP (UniProt Q14558).
T2 sequence: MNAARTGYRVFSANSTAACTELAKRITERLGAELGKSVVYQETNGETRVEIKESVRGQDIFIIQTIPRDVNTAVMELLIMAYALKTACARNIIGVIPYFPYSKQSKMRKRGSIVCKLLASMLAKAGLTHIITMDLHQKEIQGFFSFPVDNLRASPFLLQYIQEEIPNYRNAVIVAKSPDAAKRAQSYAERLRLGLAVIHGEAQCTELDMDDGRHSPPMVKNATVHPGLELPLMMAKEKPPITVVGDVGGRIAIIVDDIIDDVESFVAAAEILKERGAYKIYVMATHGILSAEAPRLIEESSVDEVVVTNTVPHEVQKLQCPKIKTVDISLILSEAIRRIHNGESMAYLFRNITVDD

Experiment [3] addresses T3, PRPSAP2-GFP (UniProt O60256).
T3 sequence: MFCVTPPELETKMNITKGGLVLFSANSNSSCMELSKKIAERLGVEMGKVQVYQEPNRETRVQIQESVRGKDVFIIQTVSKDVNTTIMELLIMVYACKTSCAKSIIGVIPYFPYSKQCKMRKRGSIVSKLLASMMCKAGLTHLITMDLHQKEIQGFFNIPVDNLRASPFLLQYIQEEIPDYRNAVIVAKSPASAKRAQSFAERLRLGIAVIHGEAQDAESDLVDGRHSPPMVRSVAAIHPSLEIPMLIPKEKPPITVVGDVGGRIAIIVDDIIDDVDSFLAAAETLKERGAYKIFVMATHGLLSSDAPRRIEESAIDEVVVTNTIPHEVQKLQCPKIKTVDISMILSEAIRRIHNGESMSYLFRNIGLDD

In experiment [4] the target is T4, PRPS2-GFP (UniProt Q9CS42).
T4 sequence: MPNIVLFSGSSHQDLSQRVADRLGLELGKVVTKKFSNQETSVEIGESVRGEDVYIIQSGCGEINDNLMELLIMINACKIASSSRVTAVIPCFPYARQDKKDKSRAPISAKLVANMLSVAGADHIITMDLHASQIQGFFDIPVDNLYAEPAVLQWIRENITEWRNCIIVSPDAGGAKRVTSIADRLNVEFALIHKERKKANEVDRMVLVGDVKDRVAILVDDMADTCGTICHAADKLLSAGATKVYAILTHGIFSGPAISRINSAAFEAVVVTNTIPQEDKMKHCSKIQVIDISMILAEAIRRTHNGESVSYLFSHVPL

These are yes or no findings as the source states them, for the method shown. Binding seen in cells or lysates may run through a third protein. These calls come from enrichment with a bait or labelling near it, and not all partners need be listed. Tags and fused reporters may be left off the sequences shown.

B1: PRPS1L1 (endogenous, human) (enzyme, UniProt P21108 1-318)
chain: MPNIKIFSGSSHQDLSQKIADRLGLELGKVVTKKFSNQETCVEIDESVRGEDVYIVQSGCGEINDSLMELLIMINACKIASASRVTAVIPCFPYARQDKKDKSRSPISAKLVANMLSIAGADHIITMDLHASQIQGFFDIPVDNLYAEPTVLKWIRENIPEWKNCIIVSPDAGGAKRVTSIADQLNVDFALIHKERKKANEVDCIVLVGDVNDRVAILVDDMADTCVTICLAADKLLSAGATRVYAILTHGIFSGPAISRINTACFEAVVVTNTIPQDEKMKHCSKIRVIDISMILAEAIRRTHNGESVSYLFSHVPL
Consider B1, for which the binding entry in experiment [1] is “binds”.

B2: PRPS2 (endogenous, mouse) (enzyme, UniProt Q9CS42 1-318, looked up)
chain: MPNIVLFSGSSHQDLSQRVADRLGLELGKVVTKKFSNQETSVEIGESVRGEDVYIIQSGCGEINDNLMELLIMINACKIASSSRVTAVIPCFPYARQDKKDKSRAPISAKLVANMLSVAGADHIITMDLHASQIQGFFDIPVDNLYAEPAVLQWIRENITEWRNCIIVSPDAGGAKRVTSIADRLNVEFALIHKERKKANEVDRMVLVGDVKDRVAILVDDMADTCGTICHAADKLLSAGATKVYAILTHGIFSGPAISRINSAAFEAVVVTNTIPQEDKMKHCSKIQVIDISMILAEAIRRTHNGESVSYLFSHVPL
notes: PRPS2, endogenous in mouse cells and tissues; also called P2; phosphoribosyl pyrophosphate synthetase 2; source: endogenous, NIH3T3 lysate (parental and CRISPR knockout lines); endogenous, C57BL/6 mouse liver, kidney and lung lysates
Take B2: the binding result in experiment [1], in experiment [2] and in experiment [3] was “binds” in each case.

B3: PRPS2 (endogenous, human) (enzyme, UniProt P11908-1 1-318)
chain: MPNIVLFSGSSHQDLSQRVADRLGLELGKVVTKKFSNQETSVEIGESVRGEDVYIIQSGCGEINDNLMELLIMINACKIASSSRVTAVIPCFPYARQDKKDKSRAPISAKLVANMLSVAGADHIITMDLHASQIQGFFDIPVDNLYAEPAVLQWIRENIAEWKNCIIVSPDAGGAKRVTSIADRLNVEFALIHKERKKANEVDRMVLVGDVKDRVAILVDDMADTCGTICHAADKLLSAGATKVYAILTHGIFSGPAISRINNAAFEAVVVTNTIPQEDKMKHCTKIQVIDISMILAEAIRRTHNGESVSYLFSHVPL
Regarding B3, the binding result in experiment [1], in experiment [2] and in experiment [3] was “binds” each time.

B4: PRPSAP2 (endogenous, mouse) (protein, UniProt Q8R574 1-369)
chain: MFCVAPPELETKMNITKGGLVLFSANSNSSCMELSKKIAERLGVEMGKVQVYQEPNRETRVQIQESVRGKDVFIIQTISKDVNTTIMELLIMVYACKTSCAKSIIGVIPYFPYSKQCKMRKRGSIVSKLLASMMCKAGLTHLITMDLHQKEIQGFFNIPVDNLRASPFLLQYIQEEIPDYRNAVIVAKSPASAKRAQSFAERLRLGIAVIHGEAQDAESDLVDGRHSPPMVRSVAAIHPSLEIPMLIPKEKPPITVVGDVGGRIAIIVDDIIDDVDSFLAAAETLKERGAYKIFVMATHGLLSSDAPRLIEESAIDEVVVTNTIPHEIQKLQCPKIKTVDISMILSEAIRRIHNGESMSYLFRNIGLDD
On to B4, for which the binding result in experiment [4] and in experiment [2] was “binds” in each case.

B5: PRPSAP2 (endogenous, human) (protein, UniProt O60256-1 1-369)
chain: MFCVTPPELETKMNITKGGLVLFSANSNSSCMELSKKIAERLGVEMGKVQVYQEPNRETRVQIQESVRGKDVFIIQTVSKDVNTTIMELLIMVYACKTSCAKSIIGVIPYFPYSKQCKMRKRGSIVSKLLASMMCKAGLTHLITMDLHQKEIQGFFNIPVDNLRASPFLLQYIQEEIPDYRNAVIVAKSPASAKRAQSFAERLRLGIAVIHGEAQDAESDLVDGRHSPPMVRSVAAIHPSLEIPMLIPKEKPPITVVGDVGGRIAIIVDDIIDDVDSFLAAAETLKERGAYKIFVMATHGLLSSDAPRRIEESAIDEVVVTNTIPHEVQKLQCPKIKTVDISMILSEAIRRIHNGESMSYLFRNIGLDD
On to B5, for which the binding entry in experiment [4] and in experiment [2] was “binds” throughout.

B6: PRPSAP1 (endogenous, human) (protein, UniProt Q14558 1-356)
chain: MNAARTGYRVFSANSTAACTELAKRITERLGAELGKSVVYQETNGETRVEIKESVRGQDIFIIQTIPRDVNTAVMELLIMAYALKTACARNIIGVIPYFPYSKQSKMRKRGSIVCKLLASMLAKAGLTHIITMDLHQKEIQGFFSFPVDNLRASPFLLQYIQEEIPNYRNAVIVAKSPDAAKRAQSYAERLRLGLAVIHGEAQCTELDMDDGRHSPPMVKNATVHPGLELPLMMAKEKPPITVVGDVGGRIAIIVDDIIDDVESFVAAAEILKERGAYKIYVMATHGILSAEAPRLIEESSVDEVVVTNTVPHEVQKLQCPKIKTVDISLILSEAIRRIHNGESMAYLFRNITVDD
Take B6: the binding result in experiment [4] and in experiment [3] was “binds” in each case.

B7: PRPSAP1 (endogenous, mouse) (protein, UniProt Q9D0M1 1-356)
chain: MNAARTGYRVFSANSTAACTELAKRITERLGAELGKSVVYQETNGETRVEIKESVRGQDIFIIQTIPRDVNTAVMELLIMAYALKTACARNIIGVIPYFPYSKQSKMRKRGSIVCKLLASMLAKAGLTHIITMDLHQKEIQGFFSFPVDNLRASPFLLQYIQEEIPNYRNAVIVAKSPDAAKRAQSYAERLRLGLAVIHGEAQCTELDMDDGRHSPPMVKNATVHPGLELPLMMAKEKPPITVVGDVGGRIAIIVDDIIDDVESFVAAAEILKERGAYKIYVMATHGILSAEAPRLIEESPIDEVVVTNTVPHELQKLQCPKIKTVDISLILSEAIRRIHNGESMAYLFRNITVDD
As for B7, the binding result in experiment [4] and in experiment [3] was “binds” in each case.

B8: PRPS1 (endogenous, human) (enzyme, UniProt P60891-1 1-318)
chain: MPNIKIFSGSSHQDLSQKIADRLGLELGKVVTKKFSNQETCVEIGESVRGEDVYIVQSGCGEINDNLMELLIMINACKIASASRVTAVIPCFPYARQDKKDKSRAPISAKLVANMLSVAGADHIITMDLHASQIQGFFDIPVDNLYAEPAVLKWIRENISEWRNCTIVSPDAGGAKRVTSIADRLNVDFALIHKERKKANEVDRMVLVGDVKDRVAILVDDMADTCGTICHAADKLLSAGATRVYAILTHGIFSGPAISRINNACFEAVVVTNTIPQEDKMKHCSKIQVIDISMILAEAIRRTHNGESVSYLFSHVPL
As to B8, the binding entry in experiment [4] is on record as “binds”.

B9: PRPS1 (endogenous, mouse) (enzyme, UniProt Q9D7G0 1-318)
chain: MPNIKIFSGSSHQDLSQKIADRLGLELGKVVTKKFSNQETCVEIGESVRGEDVYIVQSGCGEINDNLMELLIMINACKIASASRVTAVIPCFPYARQDKKDKSRAPISAKLVANMLSVAGADHIITMDLHASQIQGFFDIPVDNLYAEPAVLKWIRENISEWRNCTIVSPDAGGAKRVTSIADRLNVDFALIHKERKKANEVDRMVLVGDVKDRVAILVDDMADTCGTICHAADKLLSAGATRVYAILTHGIFSGPAISRINNACFEAVVVTNTIPQEDKMKHCSKIQVIDISMILAEAIRRTHNGESVSYLFSHVPL
With B9, the binding result in experiment [4] is “binds”.

The values above are taken from article PMC12238573 (Nature Communications, 2025).
